Assay in all cases: pull-down; 2 μg GST-tagged protein on GSH-sepharose 4B, blocked with BSA; 2 μg His6-tagged protein added, 1 h at room temperature in 40 mM Tris-HCl pH 7.5, 10 mM MgCl2, 1 mM DDM, 0.2% BSA; washed with 50 mM NaCl; Western blot with anti-SA2056 or anti-His6; both purified
The target of test [1] is T1, GST-FemX (Staphylococcus aureus) (UniProt Q2FVZ4).
T1 sequence: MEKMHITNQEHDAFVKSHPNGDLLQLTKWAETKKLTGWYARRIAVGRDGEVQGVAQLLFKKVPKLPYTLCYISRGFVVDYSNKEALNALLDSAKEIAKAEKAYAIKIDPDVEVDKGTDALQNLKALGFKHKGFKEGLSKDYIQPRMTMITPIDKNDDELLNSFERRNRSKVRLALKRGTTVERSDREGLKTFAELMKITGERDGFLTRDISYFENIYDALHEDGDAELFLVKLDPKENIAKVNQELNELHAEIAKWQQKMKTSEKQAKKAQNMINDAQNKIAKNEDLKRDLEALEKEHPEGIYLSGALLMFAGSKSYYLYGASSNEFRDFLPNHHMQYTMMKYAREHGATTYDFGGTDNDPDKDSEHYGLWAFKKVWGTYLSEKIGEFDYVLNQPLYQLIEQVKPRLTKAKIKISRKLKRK

Test [2] concerns the target T2, GST-FemA (Staphylococcus aureus) (UniProt P0A0A5).
T2 sequence: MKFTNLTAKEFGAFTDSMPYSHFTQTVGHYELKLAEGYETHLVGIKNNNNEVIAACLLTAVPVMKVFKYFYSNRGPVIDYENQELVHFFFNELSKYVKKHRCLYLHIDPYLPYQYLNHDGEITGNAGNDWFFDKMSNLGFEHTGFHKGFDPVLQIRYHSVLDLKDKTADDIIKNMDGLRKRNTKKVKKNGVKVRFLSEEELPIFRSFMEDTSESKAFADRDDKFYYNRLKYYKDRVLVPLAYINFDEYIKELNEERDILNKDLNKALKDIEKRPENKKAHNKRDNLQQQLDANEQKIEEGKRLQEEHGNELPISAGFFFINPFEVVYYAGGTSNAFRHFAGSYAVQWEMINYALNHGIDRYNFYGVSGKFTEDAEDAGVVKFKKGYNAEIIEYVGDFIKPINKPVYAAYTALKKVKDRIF

In test [3] the target is T3, GST-FemB (Staphylococcus aureus) (UniProt Q2FYR1).
T3 sequence: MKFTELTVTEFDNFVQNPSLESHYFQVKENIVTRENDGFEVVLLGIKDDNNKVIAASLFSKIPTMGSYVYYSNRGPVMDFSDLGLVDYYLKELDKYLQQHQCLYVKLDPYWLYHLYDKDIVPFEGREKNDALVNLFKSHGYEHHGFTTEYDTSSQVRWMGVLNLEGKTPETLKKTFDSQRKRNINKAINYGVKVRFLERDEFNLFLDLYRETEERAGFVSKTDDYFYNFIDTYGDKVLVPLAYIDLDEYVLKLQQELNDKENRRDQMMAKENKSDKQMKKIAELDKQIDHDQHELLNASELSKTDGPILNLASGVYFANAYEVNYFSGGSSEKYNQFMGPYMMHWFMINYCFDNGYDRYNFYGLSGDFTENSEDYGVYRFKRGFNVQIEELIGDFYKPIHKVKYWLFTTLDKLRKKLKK

Results are given in words; binding and its absence hold for the method and conditions named. Binding calls can cover weak binding; strength is not graded here. Sequences can lack the tags named with a protein.

Drawing on publication PMC4790295, this text covers binding for one substance.

For the substance SA2056-His6 (Staphylococcus aureus), the figures for the binding entry in test [1], in test [2] and in test [3] were “binds weakly”, “binds weakly” and “binds”, respectively.
